In assay [1] the target is C1q protein. The experiment in a line: ELISA: antibody titrated on coated PD-1 HIS, then C1q at 4 ug/mL, goat anti-C1q and donkey anti-goat-HRP.
The target in assay [2] is C1q protein. The experiment in a line: condition: 2-fold dilutions of antibody starting at 1 µg/mL; C1q at 4 µg/mL; ELISA: antibody captured on PD-1 HIS, C1q added. For orientation: ELISA stands for enzyme-linked immunosorbent assay.
Assay [3] concerns the target C1q protein. The experiment in a line: ELISA: antibody captured on PD-1 HIS, C1q added.

No constants are given. Whether binding was seen depends on the method and setting. For some of these results: Binding can be weak; no strength is given.

B1: can2H9 VH4/VL3 IgGB (antibody)
heavy: EVQLVQSGGDLVKPGGSVRLSCVASGFNIKNTYMHWVRQAPGKGLQWIGRIAPANVDTKYAPKFQGKATISADTAKNTAYMQLNSLRAEDTAVYYCVLIYYDYDGDIDVWGQGTLVTVSSASTTAPSVFPLAPSCGSTSGSTVALACLVSGYFPEPVTVSWNSGSLTSGVHTFPSVLQSSGLYSLSSMVTVPSSRWPSETFTCNVAHPASKTKVDKPVPKRENGRVPRPPDCPKCPAPEMLGGPSVFIFPPKPKDTLLIARTPEVTCVVVDLDPEDPEVQISWFVDGKQMQTAKTQPREEQFNGTYRVVSVLPIGHQDWLKGKQFTCKVNNKALPSPIERTISKARGQAHQPSVYVLPPSREELSKNTVSLTCLIKDFFPPDIDVEWQSNGQQEPESKYRTTPPQLDEDGSYFLYSKLSVDKSRWQRGDTFICAVMHEALHNHYTQESLSHSPGK
light: DIVMTQTPLSLSVSLGEPASISCHASQNINVWLSWYRQKPGQIPQLLIYKASHLHTGVPDRFSGSGSGTDFTLRISRVEADDAGVYYCQQGQSWPLTFGQGTKVEIKRNDAQPAVYLFQPSPDQLHTGSASVVCLLNSFYPKDINVKWKVDGVIQDTGIQESVTEQDSKDSTYSLSSTLTMSSTEYLSHELYSCEITHKSLPSTLIKSFQRSECQRVD
notes: also called 2H9 VH4 IgGB/VL3; caninized 2H9 with un-modified IgGB Fc
As for B1, the binding entry in assay [1] is on record as “binds”.

B2: can2H9 ADCC (1062) VH4/VL3 (antibody)
heavy: EVQLVQSGGDLVKPGGSVRLSCVASGFNIKNTYMHWVRQAPGKGLQWIGRIAPANVDTKYAPKFQGKATISADTAKNTAYMQLNSLRAEDTAVYYCVLIYYDYDGDIDVWGQGTLVTVSSASTTAPSVFPLAPSCGSTSGSTVALACLVSGYFPEPVTVSWNSGSLTSGVHTFPSVLQSSGLYSLSSMVTVPSSRWPSETFTCNVAHPASKTKVDKPVPKRENGRVPRPPDCPKCPAPEMLGGPSVFIFPPKPKDTLLIARTPEVTCVVVALDPEDPEVQISWFVDGKQMQTAKTQPREEQFAGTYRVVSVLPIGHQDWLKGKQFTCKVNNKALPSPIERTISKARGQAHQPSVYVLPPSREELSKNTVSLTCLIKDFFPPDIDVEWQSNGQQEPESKYRTTPPQLDEDGSYFLYSKLSVDKSRWQRGDTFICAVMHEALHNHYTQESLSHSPGK
light: DIVMTQTPLSLSVSLGEPASISCHASQNINVWLSWYRQKPGQIPQLLIYKASHLHTGVPDRFSGSGSGTDFTLRISRVEADDAGVYYCQQGQSWPLTFGQGTKVEIKRNDAQPAVYLFQPSPDQLHTGSASVVCLLNSFYPKDINVKWKVDGVIQDTGIQESVTEQDSKDSTYSLSSTLTMSSTEYLSHELYSCEITHKSLPSTLIKSFQRSECQRVD
notes: also called YZZ1062
On to B2, for which, in assay [2], the binding entry is “no binding”.

B3: can2H9 IgGD VH4/VL3 (antibody)
heavy chain: EVQLVQSGGDLVKPGGSVRLSCVASGFNIKNTYMHWVRQAPGKGLQWIGRIAPANVDTKYAPKFQGKATISADTAKNTAYMQLNSLRAEDTAVYYCVLIYYDYDGDIDVWGQGTLVTVSSASTTAPSVFPLAPSCGSTSGSTVALACLVSGYFPEPVTVSWNSGSLTSGVHTFPSVLQSSGLYSLSSTVTVPSSRWPSETFTCNVVHPASNTKVDKPVPKESTCKCISPCPVPESLGGPSVFIFPPKPKDILRITRTPEITCVVLDLGREDPEVQISWFVDGKEVHTAKTQPREQQFNSTYRVVSVLPIEHQDWLTGKEFKCRVNHIGLPSPIERTISKARGQAHQPSVYVLPPSPKELSSSDTVTLTCLIKDFFPPEIDVEWQSNGQPEPESKYHTTAPQLDEDGSYFLYSKLSVDKSRWQQGDTFTCAVMHEALQNHYTDLSLSHSPGK
light chain: DIVMTQTPLSLSVSLGEPASISCHASQNINVWLSWYRQKPGQIPQLLIYKASHLHTGVPDRFSGSGSGTDFTLRISRVEADDAGVYYCQQGQSWPLTFGQGTKVEIKRNDAQPAVYLFQPSPDQLHTGSASVVCLLNSFYPKDINVKWKVDGVIQDTGIQESVTEQDSKDSTYSLSSTLTMSSTEYLSHELYSCEITHKSLPSTLIKSFQRSECQRVD
notes: also called can2H9 VH4 IgGD/VL3
For B3, the binding result in assay [1] was “no binding (tested: log(nM) about 0.83 (1 ug/mL))”.

B4: can2H9 ADCC (1061) VH4/VL3 (antibody)
heavy: EVQLVQSGGDLVKPGGSVRLSCVASGFNIKNTYMHWVRQAPGKGLQWIGRIAPANVDTKYAPKFQGKATISADTAKNTAYMQLNSLRAEDTAVYYCVLIYYDYDGDIDVWGQGTLVTVSSASTTAPSVFPLAPSCGSTSGSTVALACLVSGYFPEPVTVSWNSGSLTSGVHTFPSVLQSSGLYSLSSMVTVPSSRWPSETFTCNVAHPASKTKVDKPVPKRENGRVPRPPDCPKCPAPEMLGGPSVFIFPPKPKDTLLIARTPEVTCVVVDLDPEDPEVQISWFVDGKQMQTAKTQPREEQFNGTYRVVSVLPIGHQDWLKGKQFTCKVNNKALASPIERTISKARGQAHQPSVYVLPPSREELSKNTVSLTCLIKDFFPPDIDVEWQSNGQQEPESKYRTTPPQLDEDGSYFLYSKLSVDKSRWQRGDTFICAVMHEALHNHYTQESLSHSPGK
light: DIVMTQTPLSLSVSLGEPASISCHASQNINVWLSWYRQKPGQIPQLLIYKASHLHTGVPDRFSGSGSGTDFTLRISRVEADDAGVYYCQQGQSWPLTFGQGTKVEIKRNDAQPAVYLFQPSPDQLHTGSASVVCLLNSFYPKDINVKWKVDGVIQDTGIQESVTEQDSKDSTYSLSSTLTMSSTEYLSHELYSCEITHKSLPSTLIKSFQRSECQRVD
notes: also called can2H9 VH4 IgGB ADCC (1061)/VL3; YZZ1061
With B4, the binding entry in assay [3] and in assay [1] was “binds” each time.

B5: can2H9 ADCC(1060) VH4/VL3 (antibody)
heavy: EVQLVQSGGDLVKPGGSVRLSCVASGFNIKNTYMHWVRQAPGKGLQWIGRIAPANVDTKYAPKFQGKATISADTAKNTAYMQLNSLRAEDTAVYYCVLIYYDYDGDIDVWGQGTLVTVSSASTTAPSVFPLAPSCGSTSGSTVALACLVSGYFPEPVTVSWNSGSLTSGVHTFPSVLQSSGLYSLSSMVTVPSSRWPSETFTCNVAHPASKTKVDKPVPKRENGRVPRPPDCPKCPAPEMLGGPSVFIFPPKPKDTLLIARTPEVTCVVVDLDPEDPEVQISWFVDGKQMQTAKTQPREEQFNGTYRVVSVLPIGHQDWLKGKQFTCKVNNKGLPSPIERTISKARGQAHQPSVYVLPPSREELSKNTVSLTCLIKDFFPPDIDVEWQSNGQQEPESKYRTTPPQLDEDGSYFLYSKLSVDKSRWQRGDTFICAVMHEALHNHYTQESLSHSPGK
light: DIVMTQTPLSLSVSLGEPASISCHASQNINVWLSWYRQKPGQIPQLLIYKASHLHTGVPDRFSGSGSGTDFTLRISRVEADDAGVYYCQQGQSWPLTFGQGTKVEIKRNDAQPAVYLFQPSPDQLHTGSASVVCLLNSFYPKDINVKWKVDGVIQDTGIQESVTEQDSKDSTYSLSSTLTMSSTEYLSHELYSCEITHKSLPSTLIKSFQRSECQRVD
notes: also called YZZ1060
With B5, the binding result in assay [3] and in assay [1] was “binds” throughout.

B6: can2H9 ADCC mut-1 VH4/VL3 (antibody)
heavy: EVQLVQSGGDLVKPGGSVRLSCVASGFNIKNTYMHWVRQAPGKGLQWIGRIAPANVDTKYAPKFQGKATISADTAKNTAYMQLNSLRAEDTAVYYCVLIYYDYDGDIDVWGQGTLVTVSSASTTAPSVFPLAPSCGSTSGSTVALACLVSGYFPEPVTVSWNSGSLTSGVHTFPSVLQSSGLYSLSSMVTVPSSRWPSETFTCNVAHPASKTKVDKPVPKRENGRVPRPPDCPKCPAPEMLGGPSVFIFPPKPKDTLLIARTPEVTCVVVALDPEDPEVQISWFVDGKQMQTAKTQPREEQFNGTYRVVSVLPIGHQDWLKGKQFTCKVNNKALPSPIERTISKARGQAHQPSVYVLPPSREELSKNTVSLTCLIKDFFPPDIDVEWQSNGQQEPESKYRTTPPQLDEDGSYFLYSKLSVDKSRWQRGDTFICAVMHEALHNHYTQESLSHSPGK
light: DIVMTQTPLSLSVSLGEPASISCHASQNINVWLSWYRQKPGQIPQLLIYKASHLHTGVPDRFSGSGSGTDFTLRISRVEADDAGVYYCQQGQSWPLTFGQGTKVEIKRNDAQPAVYLFQPSPDQLHTGSASVVCLLNSFYPKDINVKWKVDGVIQDTGIQESVTEQDSKDSTYSLSSTLTMSSTEYLSHELYSCEITHKSLPSTLIKSFQRSECQRVD
notes: also called can2H9VH4 IgGB ADCC (mut-1)/VL3; YZZ1057/Mut-1
On to B6, for which the binding result in assay [3] and in assay [1] was “binds” in each case.

B7: can2H9 ADCC(1059) VH4/VL3 (antibody)
heavy: EVQLVQSGGDLVKPGGSVRLSCVASGFNIKNTYMHWVRQAPGKGLQWIGRIAPANVDTKYAPKFQGKATISADTAKNTAYMQLNSLRAEDTAVYYCVLIYYDYDGDIDVWGQGTLVTVSSASTTAPSVFPLAPSCGSTSGSTVALACLVSGYFPEPVTVSWNSGSLTSGVHTFPSVLQSSGLYSLSSMVTVPSSRWPSETFTCNVAHPASKTKVDKPVPKRENGRVPRPPDCPKCPAPEMLGGASVFIFPPKPKDTLLIARTPEVTCVVVDLDPEDPEVQISWFVDGKQMQTAKTQPREEQFNGTYRVVSVLPIGHQDWLKGKQFTCKVNNKALPSPIERTISKARGQAHQPSVYVLPPSREELSKNTVSLTCLIKDFFPPDIDVEWQSNGQQEPESKYRTTPPQLDEDGSYFLYSKLSVDKSRWQRGDTFICAVMHEALHNHYTQESLSHSPGK
light: DIVMTQTPLSLSVSLGEPASISCHASQNINVWLSWYRQKPGQIPQLLIYKASHLHTGVPDRFSGSGSGTDFTLRISRVEADDAGVYYCQQGQSWPLTFGQGTKVEIKRNDAQPAVYLFQPSPDQLHTGSASVVCLLNSFYPKDINVKWKVDGVIQDTGIQESVTEQDSKDSTYSLSSTLTMSSTEYLSHELYSCEITHKSLPSTLIKSFQRSECQRVD
notes: also called can2H9 VH4 IgGB ADCC(1059)/VL3; YZZ1059
Take B7: the binding entry in assay [3] and in assay [1] was “binds” each time.

B8: can2H9 ADCC mut-2 VH4/VL3 (antibody)
heavy: EVQLVQSGGDLVKPGGSVRLSCVASGFNIKNTYMHWVRQAPGKGLQWIGRIAPANVDTKYAPKFQGKATISADTAKNTAYMQLNSLRAEDTAVYYCVLIYYDYDGDIDVWGQGTLVTVSSASTTAPSVFPLAPSCGSTSGSTVALACLVSGYFPEPVTVSWNSGSLTSGVHTFPSVLQSSGLYSLSSMVTVPSSRWPSETFTCNVAHPASKTKVDKPVPKRENGRVPRPPDCPKCPAPEMLGGPSVFIFPPKPKDTLLIARTPEVTCVVVDLDPEDPEVQISWFVDGKQMQTAKTQPREEQFAGTYRVVSVLPIGHQDWLKGKQFTCKVNNKALPSPIERTISKARGQAHQPSVYVLPPSREELSKNTVSLTCLIKDFFPPDIDVEWQSNGQQEPESKYRTTPPQLDEDGSYFLYSKLSVDKSRWQRGDTFICAVMHEALHNHYTQESLSHSPGK
light: DIVMTQTPLSLSVSLGEPASISCHASQNINVWLSWYRQKPGQIPQLLIYKASHLHTGVPDRFSGSGSGTDFTLRISRVEADDAGVYYCQQGQSWPLTFGQGTKVEIKRNDAQPAVYLFQPSPDQLHTGSASVVCLLNSFYPKDINVKWKVDGVIQDTGIQESVTEQDSKDSTYSLSSTLTMSSTEYLSHELYSCEITHKSLPSTLIKSFQRSECQRVD
notes: also called can2H9 VH4 IgGB ADCC (mut-2)/VL3; YZZ1058/Mut-2
For B8, the binding result in assay [3] and in assay [1] was “binds” throughout.
